Laboratory results: PubChem BioAssay AID1259405 (NCATS, 2018)
In all, the deposit lists about 50,000 reagents; this is a random part of them. Of all reagents, about 4,000 (8%) are marked active. 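Mouse siRNA library applied to hamster cells; one well for each siRNA.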 Unmarked entries are inactive. Reagents against one gene are numbered here.

- Screen: 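Silenced genes that increase secreted GFP made by CHO cells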 (primary screen)
- System: Chinese hamster CHO-K1 ovary cells with stable secreted eGFP expression
- Reagents: single siRNA against mouse genes, 0.8 pmol siRNA per well (2 µl of 400 nM stock)
- Timing: 3 days
- Measurement: 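Percent of the per-plate non-targeting control median for intracellular GFP per well by laser scanning cytometry and for cell viability by ATP luminescence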
- Reading the numbers: GFP, % of control: higher = more GFP per well, higher productivity; viability (ATP), % of control: higher = more viable cells (more ATP)
- Active means: 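a knock-down is called active if GFP reaches 120% or more of non-targeting control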

gene,reagent,"GFP, % of control","viability (ATP), % of control"
P2rx1,1,74.9,95.7
P2rx1,2,93.7,82.7
P2rx1,3,80.8,85
Gpr17,1,23.7,37.8
Gpr17,2,90.7,90.9
Gpr17,3,103,47.7
Sucnr1,1,140 (active),93.3
Sucnr1,2,47.7,74.1
Sucnr1,3,74.9,67.6
Cdk9,1,57.2,65
Loxl4,1,90.1,87
Loxl4,2,99,61.9
Loxl4,3,62.3,63.4
Gys1,1,128 (active),105
Gys1,2,77.4,68.3
Gys1,3,98,117
Mzt2,1,103,102
Mzt2,2,66.4,50.6
Mzt2,3,123 (active),90.6
Vwc2,1,56.3,53.2
Vwc2,2,82.5,92.5
Vwc2,3,75.7,67.8
2310057J18Rik,1,71.6,30.3
2310057J18Rik,2,43.9,37.4
2310057J18Rik,3,89,63.8
Dlk1,1,58.3,65.3
Dlk1,2,66.8,52.1
Dlk1,3,121 (active),52.2
Vmn1r74,1,69.3,40.1
Vmn1r74,2,78.5,90.6
Vmn1r74,3,49.2,65.7
Lefty2,1,62.2,71.6
Lefty2,2,92,113
Coro2a,1,102,60.2
Coro2a,2,78.9,75.2
Coro2a,3,135 (active),66.2
Dnph1,1,56,35.1
Dnph1,2,101,81.6
Dnph1,3,143 (active),124
Ms4a3,1,94.4,39.7
Ms4a3,2,85.6,81.3
Ms4a3,3,63.8,108
Axin1,1,87.9,80.8
Axin1,2,87.5,70.9
Axin1,3,105,115
Mcm2,1,114,96.1
Mcm2,2,43.1,48.7
Mcm2,3,69.4,73.9
Acan,1,116,81.6
Acan,2,68.4,64.5
Acan,3,85.3,52.3
Celsr2,1,64.2,72.7
Celsr2,2,27.9,48.2
Celsr2,3,91.1,83.2
Plb1,1,114,79.5
Plb1,2,81.7,71
Plb1,3,85.1,37.3
Gmpr2,1,59.9,61.3
Gmpr2,2,74,110
Gmpr2,3,57.4,59.3
Tsr1,1,89.2,86.8
Tsr1,2,73.5,77.7
Tsr1,3,26.5,21.7
Strn,1,44.1,44.3
Strn,2,108,110
Strn,3,122 (active),101
Cep85,1,51.9,43.5
Cep85,2,58.2,46.2
Cep85,3,84.2,74.3

Continued (12 carried over from the part before).
gene,reagent,"GFP, % of control","viability (ATP), % of control"
Gmpr2,1,59.9,61.3
Gmpr2,2,74,110
Gmpr2,3,57.4,59.3
Tsr1,1,89.2,86.8
Tsr1,2,73.5,77.7
Tsr1,3,26.5,21.7
Strn,1,44.1,44.3
Strn,2,108,110
Strn,3,122 (active),101
Cep85,1,51.9,43.5
Cep85,2,58.2,46.2
Cep85,3,84.2,74.3
Or10a5,1,65.3,64.4
Or10a5,2,77.6,92.6
Or10a5,3,89,69.3
Dio1,1,61.4,77.1
Dio1,2,53.8,44.4
Dio1,3,99.3,81.2
Rps26,1,29.8,25.3
Rps26,2,36.2,27.2
Rps26,3,95.1,73.9
Larp6,1,126 (active),83.8
Larp6,2,52.7,48.5
Larp6,3,67.9,90.3
Cyb5r3,1,80.7,107
Cyb5r3,2,47.9,87.4
Cyb5r3,3,83.4,72.2
Psg16,1,59.7,56.8
Psg16,2,55.5,46.9
Psg16,3,51.6,85.3
Itgb5,1,66.4,121
Itgb5,2,95.7,98.2
Pik3c2g,1,51,53.8
Pde3a,1,109,58
Pde3a,2,59.2,52.9
Pde3a,3,238 (active),130
Nlrc3,1,41.2,35.2
Nlrc3,2,74.8,70.7
Cdh11,1,74.5,87.4
Cdh11,2,91,70.1
Cdh11,3,65,74.5
Txnl4a,1,51.2,66.9
Txnl4a,2,57.5,69.3
Txnl4a,3,44.2,27.5
Txnl4a,4,66.6,48.6
Txnl4a,5,39.9,70.7
Txnl4a,6,104,102
Gbp2b,1,25.2,42.2
Gbp2b,2,51.7,99.1
Gbp2b,3,37.3,52.8
